No constants are given. Whether binding was seen depends on the method and setting. In cells and extracts the contact can be indirect. A result given as binding can be weak or reduced; the word gives no strength.
Key:
[1] = target: CDM-CBX4, chromodomain mutant of CBX4 (human) (UniProt O00257); assay: co-IP; Supplementary Fig. 10B, C: WT-CBX4, CDM-CBX4 and ΔTM-CBX4 with GCN5 and HDAC3; method, cells and tags not told in the text shown (co-IP is the only binding method of the methods section)
[2] = target: ΔTM-CBX4 mutant of CBX4 (human) (UniProt O00257); assay: as above

The chains behind the UniProt entries cited, without tags or fusion partners.
UniProt Q92830: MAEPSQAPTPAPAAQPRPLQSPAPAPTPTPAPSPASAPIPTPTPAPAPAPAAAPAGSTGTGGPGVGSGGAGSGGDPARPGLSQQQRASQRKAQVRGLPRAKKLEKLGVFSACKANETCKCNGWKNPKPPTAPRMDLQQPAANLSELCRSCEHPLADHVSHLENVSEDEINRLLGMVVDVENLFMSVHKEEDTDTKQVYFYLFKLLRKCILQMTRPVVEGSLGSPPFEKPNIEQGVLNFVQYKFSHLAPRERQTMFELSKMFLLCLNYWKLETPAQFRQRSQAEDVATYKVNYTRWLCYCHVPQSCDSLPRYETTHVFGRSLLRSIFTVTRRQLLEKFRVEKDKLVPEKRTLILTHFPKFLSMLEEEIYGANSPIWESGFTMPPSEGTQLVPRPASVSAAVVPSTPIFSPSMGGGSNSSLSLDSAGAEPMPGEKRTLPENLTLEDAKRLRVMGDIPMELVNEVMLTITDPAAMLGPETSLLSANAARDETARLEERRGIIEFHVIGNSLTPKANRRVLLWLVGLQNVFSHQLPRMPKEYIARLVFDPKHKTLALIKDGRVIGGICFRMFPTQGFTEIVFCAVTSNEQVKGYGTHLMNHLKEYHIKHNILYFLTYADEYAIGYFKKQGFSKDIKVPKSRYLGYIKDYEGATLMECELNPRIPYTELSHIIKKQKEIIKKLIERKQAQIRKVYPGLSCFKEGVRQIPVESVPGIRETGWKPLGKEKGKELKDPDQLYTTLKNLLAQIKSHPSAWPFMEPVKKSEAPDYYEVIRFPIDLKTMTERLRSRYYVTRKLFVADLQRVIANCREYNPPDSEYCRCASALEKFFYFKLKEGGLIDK
UniProt O15379: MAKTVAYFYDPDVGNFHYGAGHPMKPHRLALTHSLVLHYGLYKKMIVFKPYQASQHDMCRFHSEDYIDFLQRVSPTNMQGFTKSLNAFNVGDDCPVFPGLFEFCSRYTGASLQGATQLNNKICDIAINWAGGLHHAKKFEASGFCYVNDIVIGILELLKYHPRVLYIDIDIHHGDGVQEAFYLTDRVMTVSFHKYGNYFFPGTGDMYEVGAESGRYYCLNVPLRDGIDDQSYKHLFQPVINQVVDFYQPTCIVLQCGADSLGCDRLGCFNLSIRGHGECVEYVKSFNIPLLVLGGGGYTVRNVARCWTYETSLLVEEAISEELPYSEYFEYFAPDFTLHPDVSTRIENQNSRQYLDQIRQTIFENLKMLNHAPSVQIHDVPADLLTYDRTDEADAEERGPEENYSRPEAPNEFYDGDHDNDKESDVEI

Row | binding [1] | binding [2] | Substance
1 | binds | binds | HA-tagged GCN5 (from UniProt Q92830 1-837)
2 | binds |  | HDAC3 (from UniProt O15379 1-428) (enzyme)

— publication PMC7048933
